The results in this text go back to the supplement of paper PMC10849652.

By UniProt entry, the sequences of proteins in these tests, tags left out. Where a name states a change or a piece, a line headed by the entry shows the natural chain unless it says otherwise.
UniProt Q9BXS6: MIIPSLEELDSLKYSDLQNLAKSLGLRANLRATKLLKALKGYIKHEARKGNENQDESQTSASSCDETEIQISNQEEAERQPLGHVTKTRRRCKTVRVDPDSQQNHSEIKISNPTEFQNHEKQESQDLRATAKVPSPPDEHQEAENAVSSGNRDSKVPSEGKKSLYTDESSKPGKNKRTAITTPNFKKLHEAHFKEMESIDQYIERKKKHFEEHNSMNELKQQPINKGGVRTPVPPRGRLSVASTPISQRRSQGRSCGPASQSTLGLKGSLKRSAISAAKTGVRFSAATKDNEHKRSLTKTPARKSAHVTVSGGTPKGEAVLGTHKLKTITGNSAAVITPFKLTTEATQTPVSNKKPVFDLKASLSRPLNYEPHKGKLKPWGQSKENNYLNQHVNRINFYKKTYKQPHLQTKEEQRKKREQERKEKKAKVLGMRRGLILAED
UniProt P49902: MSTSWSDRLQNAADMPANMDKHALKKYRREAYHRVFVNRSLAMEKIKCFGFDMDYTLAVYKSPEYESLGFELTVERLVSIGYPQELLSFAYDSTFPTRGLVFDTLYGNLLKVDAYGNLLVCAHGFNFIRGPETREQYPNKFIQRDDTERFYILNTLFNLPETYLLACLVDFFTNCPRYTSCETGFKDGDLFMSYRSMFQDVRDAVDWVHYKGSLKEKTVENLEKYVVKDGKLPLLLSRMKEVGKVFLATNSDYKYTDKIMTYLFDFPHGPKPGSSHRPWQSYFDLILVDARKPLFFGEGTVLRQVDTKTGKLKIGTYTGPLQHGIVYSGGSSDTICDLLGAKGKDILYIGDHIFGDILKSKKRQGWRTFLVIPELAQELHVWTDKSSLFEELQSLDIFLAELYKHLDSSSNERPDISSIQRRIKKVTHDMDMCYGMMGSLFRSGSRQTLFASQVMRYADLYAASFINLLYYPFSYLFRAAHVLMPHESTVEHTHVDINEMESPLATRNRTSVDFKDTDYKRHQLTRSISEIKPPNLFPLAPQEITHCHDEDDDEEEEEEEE
UniProt Q9UBD5: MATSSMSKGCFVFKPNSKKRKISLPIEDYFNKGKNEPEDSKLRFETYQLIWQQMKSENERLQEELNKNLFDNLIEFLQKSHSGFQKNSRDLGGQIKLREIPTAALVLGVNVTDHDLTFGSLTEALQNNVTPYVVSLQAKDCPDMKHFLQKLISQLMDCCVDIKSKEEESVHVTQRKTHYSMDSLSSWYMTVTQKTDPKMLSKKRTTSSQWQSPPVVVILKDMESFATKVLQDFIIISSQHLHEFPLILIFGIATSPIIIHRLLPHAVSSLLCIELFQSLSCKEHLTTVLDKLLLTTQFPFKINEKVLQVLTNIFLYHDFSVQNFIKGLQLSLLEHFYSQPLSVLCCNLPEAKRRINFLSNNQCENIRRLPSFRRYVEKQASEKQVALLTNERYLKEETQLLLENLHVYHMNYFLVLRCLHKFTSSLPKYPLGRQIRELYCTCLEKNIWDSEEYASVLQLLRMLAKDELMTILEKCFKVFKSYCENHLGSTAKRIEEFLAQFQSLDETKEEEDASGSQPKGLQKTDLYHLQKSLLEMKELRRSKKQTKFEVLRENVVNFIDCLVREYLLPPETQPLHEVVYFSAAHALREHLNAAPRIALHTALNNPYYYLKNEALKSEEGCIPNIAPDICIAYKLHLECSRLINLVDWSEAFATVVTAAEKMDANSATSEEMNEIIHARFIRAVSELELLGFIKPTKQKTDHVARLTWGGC
UniProt Q8N1F7: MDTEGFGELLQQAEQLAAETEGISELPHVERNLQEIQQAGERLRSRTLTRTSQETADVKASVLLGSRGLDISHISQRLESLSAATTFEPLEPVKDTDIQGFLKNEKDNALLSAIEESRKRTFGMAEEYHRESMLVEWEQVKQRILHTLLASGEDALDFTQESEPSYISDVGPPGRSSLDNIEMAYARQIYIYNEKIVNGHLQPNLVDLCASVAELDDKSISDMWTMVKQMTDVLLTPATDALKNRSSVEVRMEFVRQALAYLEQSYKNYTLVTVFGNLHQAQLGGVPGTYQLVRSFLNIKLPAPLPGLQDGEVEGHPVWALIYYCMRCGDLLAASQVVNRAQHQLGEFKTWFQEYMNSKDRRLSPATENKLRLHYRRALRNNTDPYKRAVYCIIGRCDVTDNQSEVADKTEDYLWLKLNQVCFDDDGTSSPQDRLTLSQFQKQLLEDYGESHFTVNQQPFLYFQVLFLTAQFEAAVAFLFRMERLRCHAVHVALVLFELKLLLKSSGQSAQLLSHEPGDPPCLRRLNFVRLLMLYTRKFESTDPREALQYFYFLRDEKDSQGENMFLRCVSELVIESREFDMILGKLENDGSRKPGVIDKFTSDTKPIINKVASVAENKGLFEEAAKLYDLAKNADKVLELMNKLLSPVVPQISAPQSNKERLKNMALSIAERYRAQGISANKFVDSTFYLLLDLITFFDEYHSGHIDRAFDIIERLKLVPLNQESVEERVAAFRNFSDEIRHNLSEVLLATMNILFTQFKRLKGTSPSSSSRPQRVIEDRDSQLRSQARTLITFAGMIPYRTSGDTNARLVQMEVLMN
UniProt Q8TCD5: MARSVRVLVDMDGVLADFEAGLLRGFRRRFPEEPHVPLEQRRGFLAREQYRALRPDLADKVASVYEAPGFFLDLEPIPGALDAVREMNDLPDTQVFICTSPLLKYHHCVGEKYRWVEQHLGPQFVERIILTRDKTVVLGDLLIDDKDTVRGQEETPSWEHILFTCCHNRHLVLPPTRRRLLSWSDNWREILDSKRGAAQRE
UniProt Q13438: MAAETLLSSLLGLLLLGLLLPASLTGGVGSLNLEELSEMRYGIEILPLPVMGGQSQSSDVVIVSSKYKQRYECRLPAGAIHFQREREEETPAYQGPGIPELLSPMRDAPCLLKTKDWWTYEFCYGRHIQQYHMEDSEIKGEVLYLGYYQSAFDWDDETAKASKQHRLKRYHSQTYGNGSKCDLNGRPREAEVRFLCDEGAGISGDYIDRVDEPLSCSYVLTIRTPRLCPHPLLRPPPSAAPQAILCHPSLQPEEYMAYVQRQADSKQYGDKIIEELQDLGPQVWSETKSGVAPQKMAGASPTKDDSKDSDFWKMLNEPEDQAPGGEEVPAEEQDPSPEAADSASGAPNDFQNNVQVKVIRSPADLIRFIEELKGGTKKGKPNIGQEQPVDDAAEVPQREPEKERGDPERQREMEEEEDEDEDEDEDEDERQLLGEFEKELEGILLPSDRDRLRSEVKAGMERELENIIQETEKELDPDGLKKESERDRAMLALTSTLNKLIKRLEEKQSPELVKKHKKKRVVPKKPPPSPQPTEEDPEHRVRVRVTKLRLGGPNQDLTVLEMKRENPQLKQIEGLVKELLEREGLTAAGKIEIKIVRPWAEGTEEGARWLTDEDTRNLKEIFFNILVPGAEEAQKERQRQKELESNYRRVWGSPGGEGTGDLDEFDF
UniProt Q8NFH4: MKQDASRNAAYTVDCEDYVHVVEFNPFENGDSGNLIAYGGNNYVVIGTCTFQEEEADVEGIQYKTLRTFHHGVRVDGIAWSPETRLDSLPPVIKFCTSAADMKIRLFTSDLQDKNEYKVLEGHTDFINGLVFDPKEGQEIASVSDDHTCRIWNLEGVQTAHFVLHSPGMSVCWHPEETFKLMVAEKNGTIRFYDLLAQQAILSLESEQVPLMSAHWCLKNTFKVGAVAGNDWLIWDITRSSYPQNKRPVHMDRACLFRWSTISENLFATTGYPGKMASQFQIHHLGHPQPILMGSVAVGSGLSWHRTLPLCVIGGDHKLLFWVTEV
UniProt P53384: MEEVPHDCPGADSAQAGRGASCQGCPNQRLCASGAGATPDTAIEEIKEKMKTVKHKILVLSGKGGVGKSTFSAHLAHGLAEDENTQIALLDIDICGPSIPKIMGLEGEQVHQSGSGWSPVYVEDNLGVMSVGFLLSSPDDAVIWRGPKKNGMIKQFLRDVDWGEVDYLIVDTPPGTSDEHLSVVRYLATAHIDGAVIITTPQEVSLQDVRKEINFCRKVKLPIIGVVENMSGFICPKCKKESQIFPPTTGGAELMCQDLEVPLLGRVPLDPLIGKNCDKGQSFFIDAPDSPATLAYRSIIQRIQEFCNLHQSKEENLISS
UniProt Q9H1E3: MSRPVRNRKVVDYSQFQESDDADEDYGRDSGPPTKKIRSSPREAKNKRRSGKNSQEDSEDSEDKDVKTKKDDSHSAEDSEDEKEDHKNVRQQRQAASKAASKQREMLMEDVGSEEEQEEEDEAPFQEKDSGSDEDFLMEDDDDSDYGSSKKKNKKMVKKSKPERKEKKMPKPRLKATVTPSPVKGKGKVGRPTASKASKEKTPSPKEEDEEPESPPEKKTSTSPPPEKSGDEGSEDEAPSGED
UniProt Q9BRJ7: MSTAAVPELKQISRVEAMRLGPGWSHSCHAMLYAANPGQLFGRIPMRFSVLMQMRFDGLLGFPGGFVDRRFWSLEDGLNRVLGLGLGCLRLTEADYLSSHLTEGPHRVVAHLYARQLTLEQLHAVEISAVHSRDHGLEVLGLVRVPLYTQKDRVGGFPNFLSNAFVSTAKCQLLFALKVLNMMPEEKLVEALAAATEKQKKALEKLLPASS
UniProt P00480: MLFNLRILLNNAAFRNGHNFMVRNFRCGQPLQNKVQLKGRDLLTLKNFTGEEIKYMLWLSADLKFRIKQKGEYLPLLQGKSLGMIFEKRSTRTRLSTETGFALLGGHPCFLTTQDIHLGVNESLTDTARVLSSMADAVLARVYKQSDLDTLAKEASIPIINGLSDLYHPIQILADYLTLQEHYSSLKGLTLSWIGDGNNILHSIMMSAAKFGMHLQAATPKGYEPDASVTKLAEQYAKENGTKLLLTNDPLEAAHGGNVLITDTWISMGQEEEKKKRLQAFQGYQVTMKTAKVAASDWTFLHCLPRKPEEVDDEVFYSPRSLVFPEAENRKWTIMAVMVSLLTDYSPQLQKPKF
UniProt Q02818: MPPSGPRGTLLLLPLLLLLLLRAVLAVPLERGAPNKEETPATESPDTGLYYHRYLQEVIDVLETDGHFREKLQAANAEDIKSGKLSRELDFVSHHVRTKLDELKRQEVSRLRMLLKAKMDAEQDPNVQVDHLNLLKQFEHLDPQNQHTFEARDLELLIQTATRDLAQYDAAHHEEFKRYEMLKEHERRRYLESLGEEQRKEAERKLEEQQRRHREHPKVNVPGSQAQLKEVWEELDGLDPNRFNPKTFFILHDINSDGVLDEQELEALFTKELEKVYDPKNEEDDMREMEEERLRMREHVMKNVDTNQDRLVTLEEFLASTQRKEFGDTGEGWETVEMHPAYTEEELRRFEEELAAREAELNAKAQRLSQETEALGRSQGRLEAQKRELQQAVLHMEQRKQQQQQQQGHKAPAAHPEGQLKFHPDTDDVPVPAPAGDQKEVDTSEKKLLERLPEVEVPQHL
UniProt Q8WUM0: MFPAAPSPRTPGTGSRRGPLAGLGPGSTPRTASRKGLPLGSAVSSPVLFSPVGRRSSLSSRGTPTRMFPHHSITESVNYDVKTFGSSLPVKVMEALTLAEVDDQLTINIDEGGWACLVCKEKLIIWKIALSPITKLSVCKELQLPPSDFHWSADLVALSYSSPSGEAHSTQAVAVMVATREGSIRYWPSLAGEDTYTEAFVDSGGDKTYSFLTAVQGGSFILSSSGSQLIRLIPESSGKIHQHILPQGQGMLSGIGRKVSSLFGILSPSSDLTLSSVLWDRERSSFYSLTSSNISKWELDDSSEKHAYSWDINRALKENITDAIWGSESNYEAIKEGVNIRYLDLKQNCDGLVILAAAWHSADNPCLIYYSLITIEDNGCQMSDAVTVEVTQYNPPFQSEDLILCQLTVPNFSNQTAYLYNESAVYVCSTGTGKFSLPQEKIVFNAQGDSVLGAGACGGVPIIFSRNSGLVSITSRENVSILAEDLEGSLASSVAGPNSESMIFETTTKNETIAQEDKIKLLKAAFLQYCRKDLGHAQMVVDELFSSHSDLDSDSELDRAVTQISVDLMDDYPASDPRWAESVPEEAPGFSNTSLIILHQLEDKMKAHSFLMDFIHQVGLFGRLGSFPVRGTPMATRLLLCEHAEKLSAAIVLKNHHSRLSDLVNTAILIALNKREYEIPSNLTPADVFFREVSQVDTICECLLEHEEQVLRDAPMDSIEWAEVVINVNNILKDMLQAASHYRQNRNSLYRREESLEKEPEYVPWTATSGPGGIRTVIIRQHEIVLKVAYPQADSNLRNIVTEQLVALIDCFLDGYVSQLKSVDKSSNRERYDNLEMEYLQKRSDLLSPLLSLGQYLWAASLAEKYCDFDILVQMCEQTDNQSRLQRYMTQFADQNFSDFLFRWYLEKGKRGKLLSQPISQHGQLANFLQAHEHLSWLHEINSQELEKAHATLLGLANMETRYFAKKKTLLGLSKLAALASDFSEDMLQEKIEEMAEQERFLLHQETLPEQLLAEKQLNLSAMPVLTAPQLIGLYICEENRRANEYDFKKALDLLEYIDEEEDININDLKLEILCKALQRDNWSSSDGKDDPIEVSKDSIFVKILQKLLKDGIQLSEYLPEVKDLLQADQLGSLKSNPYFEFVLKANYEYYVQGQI

The list shows a part of the results.

Compound in the assay: FC(F)(F)c1ccc(/C=C/c2nc(COc3ccc(CCCCn4ccnn4)cc3)co2)cc1 [mubritinib]
As to the kind of experiment: log2 fold change, soluble protein after heating vs DMSO (PISA); higher = thermal stabilisation; K562 cells, 10 uM, 30 min; active = over 0.2 and 3.5 SD of the protein, either way, in both replicates (recomputed). Summed up: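 K562 cells at 2×10^6 cells/mL were treated with 10 μM compound for 30 min. Aliquots were heated for 3 min across 48°C-58°C, pooled, and extracted in PBS with 0.5% NP-40 at 4°C; soluble protein was the supernatant after 21,000xg for 90 min. Soluble protein was quantified by TMTpro 16plex LC-MS/MS with channel sums equalised, and reported as log2 fold change in thermal stability against DMSO controls, with values from duplicates.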
OSBPL8 (UniProt Q9BZF1): the log2 fold change is inactive: 0.108.

With OXCT1 (UniProt P55809), the log2 fold change was inactive: 0.029.

In the case of NUDT5 (UniProt Q9UKK9), the log2 fold change is inactive: 0.017.

Turning to NUP214 isoform 5 (UniProt P35658), the log2 fold change is inactive: 0.036.

Take NT5DC1 (UniProt Q5TFE4): the log2 fold change is inactive: 0.001.

Take NUSAP1 (UniProt Q9BXS6): the log2 fold change is inactive: 0.002.

Consider NUB1 (UniProt Q9Y5A7), for which the log2 fold change is inactive: -0.028.

As to NT5C2 (UniProt P49902), the log2 fold change was inactive: 0.034.

With NUP85 (UniProt Q9BW27), the log2 fold change was inactive: 0.026.

In the case of OGFOD1 (UniProt Q8N543), the log2 fold change was inactive: -0.04.

Take ORC3 isoform 2 (UniProt Q9UBD5): the log2 fold change is inactive: 0.029.

As for NUP93 (UniProt Q8N1F7), the log2 fold change was inactive: 0.014.

On to OTUD5 isoform 5 (UniProt Q96G74), for which the log2 fold change is inactive: 0.062.

Regarding OPLAH (UniProt O14841), the log2 fold change was inactive: 0.013.

Consider OIP5 (UniProt O43482), for which the log2 fold change was inactive: 0.015.

Consider NUDT4 (UniProt Q9NZJ9), for which the log2 fold change is inactive: 0.05.

For the target NUDT21 (UniProt O43809), the log2 fold change is inactive: -0.008.

Regarding NT5C (UniProt Q8TCD5), the log2 fold change is inactive: 0.019.

Regarding OS9 (UniProt Q13438), the log2 fold change was inactive: -0.042.

For NUP155 (UniProt O75694), the log2 fold change is inactive: 0.11.

As for NUP37 (UniProt Q8NFH4), the log2 fold change was inactive: 0.014.

As for NUBP1 (UniProt P53384), the log2 fold change was inactive: -0.001.

On to NUCKS1 (UniProt Q9H1E3), for which the log2 fold change is inactive: 0.034.

On to NUDT16L1 (UniProt Q9BRJ7), for which the log2 fold change was inactive: 0.01.

Regarding OTC (UniProt P00480), the log2 fold change was inactive: -0.076.

Regarding NUDT3 (UniProt O95989), the log2 fold change is inactive: 0.028.

For NUDC (UniProt Q9Y266), the log2 fold change is inactive: 0.053.

With NUCB1 (UniProt Q02818), the log2 fold change was inactive: -0.031.

Take NUP42 (UniProt O15504): the log2 fold change was inactive: -0.119.

In the case of NUP133 (UniProt Q8WUM0), the log2 fold change is inactive: -0.126.

With ODR4 (UniProt Q5SWX8), the log2 fold change is inactive: 0.065.

Regarding NUBPL (UniProt Q8TB37), the log2 fold change was inactive: 0.086.
